# Assay results from publication PMC7862700.
# By UniProt entry, the sequences of proteins in these tests, tags left out. Where a name states a change or a piece, a line headed by the entry shows the natural chain unless it says otherwise.
# UniProt O43186: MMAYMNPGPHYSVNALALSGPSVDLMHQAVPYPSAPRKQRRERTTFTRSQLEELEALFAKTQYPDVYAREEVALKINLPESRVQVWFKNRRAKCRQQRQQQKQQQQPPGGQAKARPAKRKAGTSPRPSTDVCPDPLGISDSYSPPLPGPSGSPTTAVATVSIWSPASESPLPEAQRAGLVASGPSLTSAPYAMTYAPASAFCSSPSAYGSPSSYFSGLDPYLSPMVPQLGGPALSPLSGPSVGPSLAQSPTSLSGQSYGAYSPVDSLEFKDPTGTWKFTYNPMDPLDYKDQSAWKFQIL
# The entries are a selection whose mix differs from that of the whole data set. At the low end of the ranking the order means little.
# Biological target: T1, FEV (UniProt Q99581)
# T1 sequence: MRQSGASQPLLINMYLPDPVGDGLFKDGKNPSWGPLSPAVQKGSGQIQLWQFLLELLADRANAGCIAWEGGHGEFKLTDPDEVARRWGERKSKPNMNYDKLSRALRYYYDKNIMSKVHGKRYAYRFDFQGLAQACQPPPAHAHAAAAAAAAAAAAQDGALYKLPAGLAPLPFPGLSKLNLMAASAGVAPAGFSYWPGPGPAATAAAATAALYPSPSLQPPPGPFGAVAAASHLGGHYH
# Assay: DAPPL (digital affinity profiling via proximity ligation, sequencing)
# Conditions: 10 mM Tris-HCl pH 7.5, 50 mM NaCl, 1 mM DTT, 4% glycerol, room temperature, 30 min; GST-TFs on glutathione beads, 16-mer random dsDNA library, 0.1% …; high values mean tight binding; double strand, one strand shown; scale: fold enrichment (6-mer frequency, TF over GST control)
row,Sequence,binding signal
1,AGAGCG,0.457
2,GGTCGT,0.575
3,AAAGAG,0.866
4,CCGTGT,0.483
5,GGAGGA,0.26
6,AGAGTC,0.405
7,AGGCGT,0.467
8,TCGGCG,0.476
9,GAGGTT,0.654
10,GGCTGG,0.729
11,TCGGCA,0.681
12,AGCGTG,0.338
13,GGCGCC,0.68
14,ACGTCG,0.641
15,CGTAGA,0.698
16,GTAGGA,0.574
17,GTGGAG,0.37
18,GGGGTA,0.717
19,GTGTAG,0.645
20,GCGGTT,0.732

row,Sequence,binding signal
1,GAGGGT,0.528
2,CGCGGA,0.865
3,GGTCGC,0.785
4,ACGCAT,0.818
5,GACTAG,0.725
6,CAGGAG,0.269
7,AAGACA,0.923
8,GCGCAT,0.836
9,TCCGTG,0.475
10,GGTACG,0.846
11,GATCGC,0.828
12,GAACGA,0.743
13,CGCAGT,0.785
14,TCGGAG,0.182
15,GTCAAG,0.748
16,GCGGTA,0.735
17,GAGCGA,0.645
18,GGACTA,0.864
19,CGCGTG,0.652

# Biological target: CRX (UniProt O43186)
# Assay: as above
# Conditions: 10 mM Tris-HCl pH 7.5, 50 mM NaCl, 1 mM DTT, 4% glycerol, room temperature, 30 min; GST-TFs on glutathione beads, 16-mer random dsDNA library, 0.1% …; high values mean tight binding; double strand, one strand shown; scale: fold enrichment (6-mer frequency, TF over GST control)
row,Sequence,binding signal
1,AGAGCG,0.392
2,GGTCGT,0.418
3,AAAGAG,0.944
4,CCGTGT,0.386
5,GGAGGA,0.22
6,AGAGTC,0.404
7,AGGCGT,0.469
8,TCGGCG,0.42
9,GAGGTT,0.748
10,GGCTGG,0.626
11,TCGGCA,0.632
12,AGCGTG,0.32
13,GGCGCC,0.484
14,ACGTCG,0.519
15,CGTAGA,0.674
16,GTAGGA,0.484
17,GTGGAG,0.354
18,GGGGTA,0.646
19,GTGTAG,0.495
20,GCGGTT,0.689

row,Sequence,binding signal
1,GAGGGT,0.462
2,CGCGGA,0.753
3,GGTCGC,0.467
4,ACGCAT,0.726
5,GACTAG,0.824
6,CAGGAG,0.218
7,AAGACA,0.948
8,GCGCAT,0.84
9,TCCGTG,0.365
10,GGTACG,0.596
11,GATCGC,0.84
12,GAACGA,0.683
13,CGCAGT,0.616
14,TCGGAG,0.183
15,GTCAAG,0.64
16,GCGGTA,0.635
17,GAGCGA,0.548
18,GGACTA,0.976
19,CGCGTG,0.507

# Biological target: T2, ELF5 (UniProt Q9UKW6-2)
# T2 sequence: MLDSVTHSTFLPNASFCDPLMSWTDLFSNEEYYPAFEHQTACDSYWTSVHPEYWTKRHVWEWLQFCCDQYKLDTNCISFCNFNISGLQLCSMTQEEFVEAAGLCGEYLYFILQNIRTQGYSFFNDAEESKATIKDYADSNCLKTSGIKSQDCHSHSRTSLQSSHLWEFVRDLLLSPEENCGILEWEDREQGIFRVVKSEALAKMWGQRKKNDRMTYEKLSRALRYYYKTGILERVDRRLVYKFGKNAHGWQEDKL
# Assay: as above
# Conditions: 10 mM Tris-HCl pH 7.5, 50 mM NaCl, 1 mM DTT, 4% glycerol, room temperature, 30 min; GST-TFs on glutathione beads, 16-mer random dsDNA library, 0.1% …; high values mean tight binding; double strand, one strand shown; scale: fold enrichment (6-mer frequency, TF over GST control)
row,Sequence,binding signal
1,AGAGCG,0.427
2,GGTCGT,0.633
3,AAAGAG,0.856
4,CCGTGT,0.596
5,GGAGGA,0.291
6,AGAGTC,0.433
7,AGGCGT,0.499
8,TCGGCG,0.454
9,GAGGTT,0.761
10,GGCTGG,0.752
11,TCGGCA,0.714
12,AGCGTG,0.356
13,GGCGCC,0.654
14,ACGTCG,0.666
15,CGTAGA,0.69
16,GTAGGA,0.647
17,GTGGAG,0.399
18,GGGGTA,0.725
19,GTGTAG,0.616
20,GCGGTT,0.723

row,Sequence,binding signal
1,GAGGGT,0.502
2,CGCGGA,1.03
3,GGTCGC,0.763
4,ACGCAT,0.801
5,GACTAG,0.692
6,CAGGAG,0.254
7,AAGACA,0.985
8,GCGCAT,0.83
9,TCCGTG,0.641
10,GGTACG,0.846
11,GATCGC,0.762
12,GAACGA,0.744
13,CGCAGT,0.716
14,TCGGAG,0.171
15,GTCAAG,0.779
16,GCGGTA,0.742
17,GAGCGA,0.585
18,GGACTA,0.83
19,CGCGTG,0.675
